Experimental findings from paper PMC4118445 are described below.

No constants are given. Whether binding was seen depends on the method and setting. In cells and extracts the contact can be indirect. Some results given as binding are weak or reduced against the parent protein; the word gives no strength. Sequences can lack the tags named with a protein.

The assay concerns the target T1, TGR5 fused to a fluorescent protein at the C-terminus, Q8TDU6.
T1 chain: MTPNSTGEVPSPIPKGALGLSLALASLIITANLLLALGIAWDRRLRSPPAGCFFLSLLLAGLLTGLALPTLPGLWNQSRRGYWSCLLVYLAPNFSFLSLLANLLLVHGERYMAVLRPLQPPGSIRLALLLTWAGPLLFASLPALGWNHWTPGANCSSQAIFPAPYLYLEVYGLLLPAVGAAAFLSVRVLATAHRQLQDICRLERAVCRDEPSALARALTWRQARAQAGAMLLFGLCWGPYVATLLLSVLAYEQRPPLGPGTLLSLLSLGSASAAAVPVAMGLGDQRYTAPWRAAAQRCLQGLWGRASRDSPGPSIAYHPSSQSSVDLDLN
Briefly: FRET or BRET; MFIS-FRET in live Hep2 cells co-transfected with TGR5-GFP (donor) and TGR5-mCherry (acceptor); donor fluorescence lifetime; acceptor titration, EGFP-mCherry ratio 1:1 to 1:20. Particulars: remark: other sources report otherwise. Background: BRET reads energy transfer from a luciferase to a nearby fluorophore.

B1: TGR5 fused to a fluorescent protein at the C-terminus, Q8TDU6 1-330 (receptor)
chain: T1 chain
Regarding B1, the binding entry was “binds”.
